What was measured:
[1] = test system: [^3H]-cocaine uptake in hCMEC/D3 cells; format: cell-based, human
[2] = test system: cocaine transporter in hCMEC/D3 cells; assay: trans-stimulation of [^3H]-cocaine exit from hCMEC/D3 cells; settings: 10 µM unlabeled compound in KH buffer after 5 minutes loading; vs control

SMILES: CN(C)CCOC(c1ccccc1)c1ccccc1 [Diphenhydramine]
- Relative uptake of [^3H]-cocaine [1]: 8.3±0.4 %
- trans-stimulation of [^3H]-cocaine exit (trans-efflux zero) [2]: strongly stimulated
